No constants are given. Whether binding was seen depends on the method and setting. In cells and extracts the contact can be indirect. Some results given as binding are weak or reduced against the parent protein; the word gives no strength. Tags and fused reporters may be left off the sequences shown.
B1: AU1-ASIC3 (rat acid-sensing ion channel 3 with AU1 tag) (protein, UniProt O35240 1-533)
chain: MKPRSGLEEAQRRQASDIRVFASSCTMHGLGHIFGPGGLTLRRGLWATAVLLSLAAFLYQVAERVRYYGEFHHKTTLDERESHQLTFPAVTLCNINPLRRSRLTPNDLHWAGTALLGLDPAEHAAYLRALGQPPAPPGFMPSPTFDMAQLYARAGHSLEDMLLDCRYRGQPCGPENFTVIFTRMGQCYTFNSGAHGAELLTTPKGGAGNGLEIMLDVQQEEYLPIWKDMEETPFEVGIRVQIHSQDEPPAIDQLGFGAAPGHQTFVSCQQQQLSFLPPPWGDCNTASLDPDDFDPEPSDPLGSPRPRPSPPYSLIGCRLACESRYVARKCGCRMMHMPGNSPVCSPQQYKDCASPALDAMLRKDTCVCPNPCATTRYAKELSMVRIPSRASARYLARKYNRSESYITENVLVLDIFFEALNYEAVEQKAAYEVSELLGDIGGQMGLFIGASLLTILEILDYLCEVFQDRVLGYFWNRRSAQKRSGNTLLQEELNGHRTHVPHLSLGPRPPTTPCAVTKTLSASHRTCYLVTRL
B2: rat acid-sensing ion channel 1a (ASIC1a) (protein, UniProt P55926-1 1-526)
chain: MELKTEEEEVGGVQPVSIQAFASSSTLHGLAHIFSYERLSLKRALWALCFLGSLAVLLCVCTERVQYYFCYHHVTKLDEVAASQLTFPAVTLCNLNEFRFSQVSKNDLYHAGELLALLNNRYEIPDTQMADEKQLEILQDKANFRSFKPKPFNMREFYDRAGHDIRDMLLSCHFRGEACSAEDFKVVFTRYGKCYTFNSGQDGRPRLKTMKGGTGNGLEIMLDIQQDEYLPVWGETDETSFEAGIKVQIHSQDEPPFIDQLGFGVAPGFQTFVSCQEQRLIYLPSPWGTCNAVTMDSDFFDSYSITACRIDCETRYLVENCNCRMVHMPGDAPYCTPEQYKECADPALDFLVEKDQEYCVCEMPCNLTRYGKELSMVKIPSKASAKYLAKKFNKSEQYIGENILVLDIFFEVLNYETIEQKKAYEIAGLLGDIGGQMGLFIGASILTVLELFDYAYEVIKHRLCRRGKCQKEAKRSSADKGVALSLDDVKRHNPCESLRGHPAGMTYAANILPHHPARGTFEDFTC

What was measured:
[1] = target: T1, rat acid-sensing ion channel 1a (ASIC1a) (rat) (UniProt P55926); assay: co-IP; CHO cells transfected with ASIC1a + AU1-ASIC3 (1:2 ratio); lysis in PBS, 1% Triton X-100; IP with goat anti-ASIC1 or goat anti-AU1 antibody, 2 h, 4 °C, Protein G agarose; blots for ASIC1 (rabbit) or AU1-ASIC3 (mouse)
T1 sequence: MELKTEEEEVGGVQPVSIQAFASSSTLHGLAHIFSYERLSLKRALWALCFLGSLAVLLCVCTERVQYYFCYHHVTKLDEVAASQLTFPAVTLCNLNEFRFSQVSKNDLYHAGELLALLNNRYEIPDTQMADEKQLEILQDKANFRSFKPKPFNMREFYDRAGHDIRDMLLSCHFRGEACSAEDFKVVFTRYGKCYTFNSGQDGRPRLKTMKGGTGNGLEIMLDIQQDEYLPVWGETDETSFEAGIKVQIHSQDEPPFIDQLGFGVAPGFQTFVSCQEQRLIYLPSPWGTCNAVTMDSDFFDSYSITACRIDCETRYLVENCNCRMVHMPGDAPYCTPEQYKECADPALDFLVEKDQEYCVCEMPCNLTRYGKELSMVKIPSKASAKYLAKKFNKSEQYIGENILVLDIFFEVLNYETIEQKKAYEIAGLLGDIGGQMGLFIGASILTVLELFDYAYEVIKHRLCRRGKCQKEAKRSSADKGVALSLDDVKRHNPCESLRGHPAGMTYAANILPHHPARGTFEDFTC

[2] = target: T2, AU1-ASIC3 (rat acid-sensing ion channel 3 with AU1 tag) (rat) (UniProt O35240); assay: as above
T2 sequence: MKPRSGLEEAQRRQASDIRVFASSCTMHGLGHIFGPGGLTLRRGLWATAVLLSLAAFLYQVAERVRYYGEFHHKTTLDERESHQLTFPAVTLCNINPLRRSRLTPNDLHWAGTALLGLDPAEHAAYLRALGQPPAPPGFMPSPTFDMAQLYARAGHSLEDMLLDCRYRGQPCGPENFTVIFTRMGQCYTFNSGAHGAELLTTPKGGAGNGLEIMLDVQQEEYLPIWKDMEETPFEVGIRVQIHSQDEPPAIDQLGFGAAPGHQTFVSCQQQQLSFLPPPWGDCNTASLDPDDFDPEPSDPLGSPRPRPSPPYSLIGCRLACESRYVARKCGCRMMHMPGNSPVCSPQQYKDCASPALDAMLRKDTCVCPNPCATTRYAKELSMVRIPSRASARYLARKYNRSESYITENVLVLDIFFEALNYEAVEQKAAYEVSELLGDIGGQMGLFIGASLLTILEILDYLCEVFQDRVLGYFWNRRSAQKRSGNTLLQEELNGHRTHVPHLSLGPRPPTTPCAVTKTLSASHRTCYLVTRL

Binder | binding [1] | binding [2]
B1 | binds | 
B2 |  | binds

— publication PMC7565092
